# Among all 340,000 compounds or so, about 6,200 (1.8%) were called active. Inconclusive results, whose numbers are uncertain, are shown with a selection of clear calls. Calls come from the whole dose curve; as a rule, active = well fitted activation curve with a large enough effect; inconclusive = small, poorly fitted or top-dose-only effect; inactive = no such curve, though single readings can be large or run the other way. Potencies of inconclusive entries are doubtful fits and often do not repeat.
# Test: A quantitative high throughput screen for small molecules that induce DNA re-replication in SW480 colon adenocarcinoma cells. For re-replication activation: % of control where 0% means no effect. Note: nearly all actives have a fitted effect of over 55% in size.
# Conditions: Hoechst DNA content imaging, 48 h; re-replication activation: at 46.1 µM (top of the series) unless noted
# In short: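 First, 250 cells per well were seeded. Next, compound or vehicle (23 nL) was pinned in, plates sat 48 hr at 37 C. Finally Hoechst was added for 40 min before fluorescence scanning.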
# Potency is the fitted concentration of half-maximal effect.
Structure (SMILES),Potency,re-replication activation
Nn1cnnc1N/N=C/c1cc(Br)cc(Br)c1O,"inconclusive: 29.1 µM [activator, single point]",
CCC(C(=O)NCCCN1CC(C)CC(C)C1)n1ncn2c(cc3occc32)c1=O (stereo unspecified),"inconclusive: 29.1 µM [activator, single point]",
O=C(OCc1nc2ccc(Cl)cc2n1CCO)c1ccccc1,inactive,
Cc1cc(C)n(CC(C)C(=O)O)n1 (stereo unspecified),"inconclusive: 6.51 µM [activator, single point]",
COc1ccc(CNc2ncnc3sccc23)cc1,inactive,
CCOc1ccc(C(=O)NCC(=O)N2CCN(Cc3ccccc3)CC2)cc1,inactive,
O=C(Nc1cccc2ccccc12)OCc1ccccc1,"inconclusive: 29.1 µM [activator, single point]",
C=CCNC(=O)C1CC1(c1ccccc1)c1ccccc1 (stereo unspecified),inactive,
CC(=O)Nc1cc2ccc(OC(C)=O)cc2oc1=O,"inconclusive: 20.6 µM [activator, single point]",
N#Cc1c(-c2ccc(Cl)cc2)c(-c2ccc(Cl)cc2)nn(CCOC(=O)CCC(=O)O)c1=O,"inconclusive: 25.9 µM [activator, single point]",
CCn1c(C)c(C(C)=O)c(N2CCN(c3ccc(F)cc3)CC2)nc1=S,,inactive: -5.49% [at 9.22 µM]
CCC(C)c1ccc(OCC(=O)NNC(=O)C2CCCCC2)cc1 (stereo unspecified),inactive,
CCn1cc(CN2CCCC(C(=O)Nc3cccc(-c4cc5ccccc5[nH]4)c3)C2)cn1 (stereo unspecified),"inconclusive: 31.6 µM [activator, single point]",
CCn1c(-c2cc(-c3ccccc3)sc2N)n[nH]c1=S,inactive,
O=C(CCN1C(=O)/C(=C/c2ccc(Cl)cc2)SC1=S)Nc1ccc(C(=O)O)cc1,inactive,
COc1ccc(/C=C\C(=O)NCC(=O)N/N=C/c2cccc(OC)c2O)cc1,"inconclusive: 18.4 µM [activator, single point]",
O=C(Cc1ccc(NC(=O)C2CCN(C(=O)C3CC3)CC2)cc1)Nc1ccc(C(=O)N2CCOCC2)cc1,"inconclusive: 1.16 µM [activator, single point]",
Cc1ccc(C)c(NC(=S)NCc2ccc3[nH]c4c(c3c2)CCCC4)c1,"inconclusive: 29.1 µM [activator, partial curve, poor fit]",
COCC(=O)N1CCC(Oc2ccc(C(=O)NC3CCOC(C)(C)C3)cc2)CC1 (stereo unspecified),inactive,
COCCCN1C(=O)c2[nH]nc(-c3ccccc3O)c2C1c1cccc(Cl)c1 (stereo unspecified),active: 16.4 µM,
O=C1CC(C(=O)Nc2ccccc2)S/C(=N\NC(=O)c2ccccc2Cl)N1 (stereo unspecified),inactive,

# Random excerpt: two compounds from above
Structure (SMILES),Potency,re-replication activation
C=CCNC(=O)C1CC1(c1ccccc1)c1ccccc1 (stereo unspecified),inactive,
CCC(C(=O)NCCCN1CC(C)CC(C)C1)n1ncn2c(cc3occc32)c1=O (stereo unspecified),"inconclusive: 29.1 µM [activator, single point]",

# — PubChem BioAssay AID624297 (National Center for Advancing Translational Sciences (NCATS), 2012)
